Melanoma cell counts after drug treatment

From a melanoma drug combination screen (doi:10.1371/journal.pone.0140310); values rounded.

Drugs:
fludarabine (200 nM): Nc1nc(F)nc2c1ncn2[C@@H]1O[C@H](CO)[C@@H](O)[C@@H]1O
VX-702 (400 nM): NC(=O)c1ccc(N(C(N)=O)c2c(F)cccc2F)nc1-c1ccc(F)cc1F
CX-4945 (400 nM): O=C(O)c1ccc2c(c1)nc(Nc1cccc(Cl)c1)c1ccncc12
BI-78D3 (200 nM): O=c1[nH]nc(Sc2ncc([N+](=O)[O-])s2)n1-c1ccc2c(c1)OCCO2

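The test systems are human melanoma cell lines, treated with two drugs together for 72 h and then stained and imaged. The read-out is cell count (nuclei) in % of the DMSO control; lower values mean stronger growth inhibition or killing. Concentrations were fixed for each drug; these are the lower of two levels, a fifth of the higher. These are primary screening values without error estimates.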 Only some of the drugs and lines screened are listed, without regard to their results. A dash means that no value is listed here.

Cell line	VX-702 + fludarabine	CX-4945 + VX-702	BI-78D3 + CX-4945	CX-4945 + fludarabine	fludarabine + BI-78D3	BI-78D3 + VX-702
COLO 792	82.6	114	105	94.7	85.1	83.8
IST-MEL1	92.9	122	112	107	92.0	89.4
C32	89.3	118	111	105	87.2	105
G-361	86.3	118	105	92.2	94.6	78.5
MEL-HO	92.4	89.2	97.5	91.2	116	99.4
LB2518-MEL	91.8	105	107	102	-	107
A101D	102	115	118	119	89.4	105
COLO 829	138	67.0	77.6	116	89.4	88.3
A375	20.6	93.7	93.6	14.8	14.8	91.7
COLO 800	108	95.4	112	109	84.4	98.8
IPC-298	98.3	81.5	96.4	102	94.2	103
A2058	91.7	93.9	87.7	89.0	81.1	92.7
LOX IMVI	104	165	61.9	73.6	87.2	140

For reference, 2 entries once more:

Cell line,VX-702 + fludarabine,CX-4945 + VX-702,BI-78D3 + CX-4945,CX-4945 + fludarabine,fludarabine + BI-78D3,BI-78D3 + VX-702
LOX IMVI,104,165,61.9,73.6,87.2,140
LB2518-MEL,91.8,105,107,102,-,107